Experimental data from US7495126B2, “Process of preparation of substituted tetrafluorobenzylaniline compound and its pharmaceutically approved salts” (priority 2005, dated 2009).
This continues a long series; more values of the same kind are listed elsewhere.

Test: Stability test of injectable preparation (salt in WFI, HPLC)
Conditions: in WFI 2 mg/ml

| Structure (SMILES) | Residual amount (25° C., day 0) | Residual amount (25° C., day 3) | Residual amount (25° C., day 14) | Residual amount (25° C., day 21) | Residual amount (25° C., day 30) | Residual amount (25° C., day 60) | Residual amount (25° C., day 90) | Residual amount (25° C., day 120) | Residual amount (25° C., day 150) | Residual amount (25° C., day 180) | Residual amount (40° C., day 0) | Residual amount (40° C., day 3) | Residual amount (40° C., day 7) | Residual amount (40° C., day 14) | Residual amount (40° C., day 21) | Residual amount (40° C., day 30) | Residual amount (40° C., day 60) | Residual amount (40° C., day 90) | Residual amount (40° C., day 120) | Residual amount (40° C., day 150) | also measured |
| --- | --- | --- | --- | --- | --- | --- | --- | --- | --- | --- | --- | --- | --- | --- | --- | --- | --- | --- | --- | --- | --- |
| O=C([O-])c1cc(NCc2c(F)c(F)c(C(F)(F)F)c(F)c2F)ccc1O.[Li+] [lithium salt, lithium 2-hydroxy-5-(2,3,5,6-tetrafluoro-4-trifluoromethyl-benzylamino)benzoate] | 99.67 ± 0.12% | 99.72 ± 0.30% | 98.91 ± 0.41% | 98.81 ± 1.67% | 95.51 ± 0.52% | 93.40 ± 0.81% | 90.40 ± 0.68% | 90.34 ± 0.58% | 89.73 ± 2.47% | 87.81 ± 1.51% | 99.67 ± 0.12% | 99.42 ± 0.22% | 98.33 ± 1.14% | 97.21 ± 0.41% | 95.05 ± 0.40% | 90.89 ± 1.00% | 89.61 ± 1.31% | 88.80 ± 0.24% | 88.07 ± 0.48% | 87.65 ± 3.22% | Residual amount (25° C., day 7): 99.63 ± 0.35%; Residual amount (40° C., day 180): 84.63 ± 2.90%; Residual amount (60° C., day 0): 99.67 ± 0.12%; Residual amount (60° C., day 3): 99.28 ± 1.02%; Residual amount (60° C., day 7): 95.34 ± 1.02%; Residual amount (60° C., day 14): 94.78 ± 2.58%; Residual amount (60° C., day 21): 94.47 ± 2.18%; Residual amount (60° C., day 30): 93.40 ± 0.61%; Residual amount (60° C., day 60): 83.11 ± 0.47%; Residual amount (60° C., day 90): 81.84 ± 0.62%; Residual amount (60° C., day 120): 81.53 ± 2.36%; Residual amount (60° C., day 150): 80.81 ± 2.08%; Residual amount (60° C., day 180): 75.59 ± 3.15% |
| O=C([O-])c1cc(NCc2c(F)c(F)c(C(F)(F)F)c(F)c2F)ccc1O.[K+] [potassium salt, potassium 2-hydroxy-5-(2,3,5,6-tetrafluoro-4-trifluoromethyl-benzylamino)benzoate] | 106.71 ± 0.29% | 107.86 ± 0.58% | 106.28 ± 1.29% | 98.94 ± 0.99% | 98.55 ± 0.43% | 97.73 ± 1.02% | 97.41 ± 0.02% | 97.40 ± 0.53% | 96.88 ± 3.09% | 95.99 ± 0.56% | 106.71 ± 0.29% | 107.73 ± 3.13% | 105.87 ± 2.04% | 104.97 ± 0.47% | 96.58 ± 0.38% | 95.66 ± 0.24% | 93.24 ± 3.04% | 92.91 ± 1.11% | 92.84 ± 0.91% | 91.72 ± 0.92% | Residual amount (40° C., day 180): 90.59 ± 0.83%; Residual amount (60° C., day 0): 106.71 ± 0.29%; Residual amount (60° C., day 3): 104.29 ± 0.50%; Residual amount (60° C., day 7): 101.76 ± 0.09%; Residual amount (60° C., day 14): 100.81 ± 0.83%; Residual amount (60° C., day 21): 90.02 ± 2.81%; Residual amount (60° C., day 30): 90.09 ± 1.88%; Residual amount (60° C., day 60): 87.38 ± 1.55%; Residual amount (60° C., day 90): 87.25 ± 1.55%; Residual amount (60° C., day 120): 86.37 ± 1.43%; Residual amount (60° C., day 150): 86.62 ± 0.83%; Residual amount (60° C., day 180): 84.68 ± 2.02% |
